Test: Levels of DOPAL, DA and HVA in human substantia nigra and striatum by MHPLC-EC
Conditions: post-mortem human brain, means±SE of at least six replicates

Compared with `COc1cc(CC(=O)O)ccc1O` [HVA, homovanillic acid], `NCCc1ccc(O)c(O)c1` [DA, dopamine] is higher in “Brain tissue level, Caudate” value: 113 ± 2.7 pg/mg wet weight for the first, 191 ± 4.4 pg/mg wet weight for the second.

With `O=CCc1ccc(O)c(O)c1` [DOPAL, 3,4-dihydroxyphenylacetaldehyde] the “Brain tissue level, Caudate” value was 149 ± 3.7 pg/mg wet weight.

First: COc1cc(CC(=O)O)ccc1O [HVA, homovanillic acid]
Second: NCCc1ccc(O)c(O)c1 [DA, dopamine]
The “Brain tissue level, Putamen” value of the first is higher: 132 ± 3.5 pg/mg wet weight for the first, 99 ± 2.5 pg/mg wet weight for the second.

In the case of `O=CCc1ccc(O)c(O)c1` [DOPAL, 3,4-dihydroxyphenylacetaldehyde], the “Brain tissue level, Putamen” value is reported as 120 ± 2.9 pg/mg wet weight.

Going from `COc1cc(CC(=O)O)ccc1O` [HVA, homovanillic acid] to `NCCc1ccc(O)c(O)c1` [DA, dopamine], the “Brain tissue level, Substantia Nigra” value falls from 321 ± 4.9 pg/mg wet weight to 275 ± 4.9 pg/mg wet weight.

In the case of `O=CCc1ccc(O)c(O)c1` [DOPAL, 3,4-dihydroxyphenylacetaldehyde], the “Brain tissue level, Substantia Nigra” value is reported as 397 ± 4.8 pg/mg wet weight.
